# Reference: PubChem BioAssay AID445 (National Center for Advancing Translational Sciences (NCATS), 2006)
# The other results are listed elsewhere or left out. Shown are side measurements of this screen, not its main read-out; they come without a call. The list favours compounds with an active or inconclusive main result. Words in brackets tell the shape of the fitted curve; partial curves, single points and poor fits give uncertain potencies.
# Assay: IkB Signaling
# Settings: ABC-DLBCL IkBa-CBG/CBR dual luciferase ratio (green luciferase fused to IkBa over red control in OCI-Ly3 lymphoma cells), 4 h
# Method in brief: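 In this assay, an IκBα–CBG68 fusion accumulates when IKK-driven degradation is blocked; native CBR normalizes for cell number. OCI-Ly3 cells were treated 4 h with compound and doxycycline, then green and red light read after Chroma-Glo addition.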
# [1] = measured here: control luc red channel unless noted
# [2] = measured here: IkB-luc green channel
# [3] = measured here: control luc red channel
structure (smiles),measurement,setting,value
COc1ccc(-c2nc(SCC(=O)NCCc3ccccc3)n[nH]2)cc1,AC50,[1],"3.16 µM [falling, partial curve]"
COc1ccc(-c2noc(CSc3nnc(C)n3-c3ccc(C)c(C)c3)n2)c(OC)c1,AC50,[1],"39.8 µM [falling, single point]"
Cc1ccc2onc(CC(=O)N3CCN(c4ccccc4)CC3)c2c1,AC50,[1],"15.8 µM [falling, single point]"
N#C/C(=C\c1cc(Br)c(O)c(Br)c1)c1nc2ccccc2c(=O)[nH]1,AC50,[1],"5.01 µM [falling, full curve]"
Cc1ccc(CCNC(=O)CCn2nc(-c3ccc(C)cc3)ccc2=O)cc1,AC50,[1],"39.8 µM [falling, single point]"
COc1cccc(C(=O)n2nc(-c3cccnc3)nc2NCc2ccc(F)cc2)c1,AC50,[1],"5.01 µM [falling, partial curve]"
COc1ccccc1CNC(=O)Cn1c(=O)nc(-c2ccccc2)c2ccccc21,AC50,[1],"31.6 µM [falling, single point]"
COC(=O)c1ccc(NC(=O)CN(Cc2ccccc2)S(=O)(=O)c2ccc(Cl)cc2)cc1,AC50,[1],"15.8 µM [falling, partial curve]"
Cc1c(Cl)cccc1NC(=O)Nc1ccc2snnc2c1,AC50,[1],"15.8 µM [falling, partial curve]"
O=C(NCCc1ccccc1)c1ccc(CS(=O)(=O)c2ccc(Cl)cc2)o1,AC50,[1],"39.8 µM [falling, single point]"
CCn1c(=S)sc2c(=O)n(-c3ccccc3)c(SC)nc21,AC50,[1],"20 µM [falling, partial curve]"
COc1ccc(OCC(=O)NCC(c2ccc(OC)cc2)N2CCOCC2)cc1 (centres undefined),AC50,[1],"0.0126 µM [rising, full curve]"
Cc1cc(NC(=O)c2cnc3c(-c4ccccc4)c(C)nn3c2C)ccc1Br,AC50,[1],"1.26 µM [falling, full curve]"
COc1ccccc1NC(=O)C1CCCCN1S(=O)(=O)c1ccc(F)cc1 (centres undefined),AC50,[1],"31.6 µM [falling, partial curve]"
Cc1ccc(N2C(=O)c3ccccc3C2O)nc1 (centres undefined),AC50,[1],"10 µM [falling, partial curve]"
CCc1c(CN2CCN(c3ccccc3F)CC2)csc1C,AC50,[1],"31.6 µM [falling, single point]"
Cc1ccc(/C=C/c2onc(C)c2S(=O)(=O)N2CCC(C(=O)NCc3ccc(OC(C)C)cc3)CC2)cc1,AC50,[1],"0.794 µM [falling, full curve, poor fit]"
Cc1ccc(CNC(=O)c2ccccc2NC(=O)c2nsc3ccccc23)cc1,AC50,[1],"39.8 µM [falling, single point]"
COc1ccc(-c2c(C)c3ccc(O)c(CN4CCCC4)c3oc2=O)cc1,AC50,[1],"25.1 µM [rising, single point]"
CCc1ccc(NC(=O)CSc2ncc(S(=O)(=O)c3cc(C)ccc3C)c(=O)[nH]2)cc1,AC50,[1],"15.8 µM [falling, partial curve, poor fit]"
COc1ccc(CC(=O)NC2CC(=O)N(c3ccc(C)c(C)c3)C2)cc1OC (centres undefined),AC50,[1],"7.94 µM [falling, single point]"
CC(C)(C)NC(=O)CSc1ncnc2c1nnn2Cc1ccccc1Cl,AC50,[2],"31.6 µM [rising, single point]"
same,AC50,[3],"25.1 µM [falling, partial curve]"
O=C(Cn1c(=O)oc2cc(S(=O)(=O)N3CCCCC3)ccc21)NCc1ccc(F)cc1,AC50,[1],"20 µM [falling, single point]"
COc1ccc(-c2ccc(=O)n(CC(=O)Nc3cccc(O)c3)n2)cc1OC,AC50,[1],"0.251 µM [rising, full curve, poor fit]"
Cc1ccc(CNC(=O)CN2C(=O)C3(SCC(=O)N3c3ccc(F)c(F)c3)c3ccccc32)cc1 (centres undefined),AC50,[1],"20 µM [falling, partial curve]"
COC(=O)c1c(NC(=O)c2ccc(S(=O)(=O)N(C)C3CCCCC3)cc2)sc2c1CCN(C)C2,AC50,[1],"25.1 µM [falling, single point]"
COC(=O)c1ccccc1NC(=O)C1CCCN(c2nnc(C)c3c(C)n(-c4ccccc4)nc23)C1 (centres undefined),AC50,[1],"12.6 µM [falling, single point]"
CN1C(=O)C(O)(C2COC(C)(C)CC2=O)c2cc(Br)ccc21 (centres undefined),AC50,[1],"6.31 µM [rising, full curve] [measured here: IkB-luc green channel]"
CCOC(=O)C1CCN(c2ncnc3c2c(-c2ccccc2)cn3-c2ccc(Cl)cc2)CC1,AC50,[1],"6.31 µM [falling, partial curve]"
Fc1cccc(Nc2cc(-n3cccn3)ncn2)c1,AC50,[1],"12.6 µM [falling, partial curve]"
O=C(COc1ccc(Cl)cc1Cl)Nc1ccccn1,AC50,[1],"7.94 µM [falling, partial curve]"
Cc1ccc(-c2nc(CS(=O)CC(=O)NCCc3ccc(Cl)cc3)c(C)o2)cc1 (centres undefined),AC50,[1],"39.8 µM [falling, single point]"
CC(CNC(=O)CCCn1c(=O)c2cccn2c2ccc(F)cc21)c1ccccc1 (centres undefined),AC50,[1],"12.6 µM [falling, partial curve]"
CCN(C(=O)CCc1nc(-c2ccc(OC)cc2)no1)c1cc(OC)ccc1OC,AC50,[1],"12.6 µM [falling, partial curve]"
COc1ccc(N2CCN(c3ncnc4c3nnn4C)CC2)cc1,AC50,[1],"5.01 µM [rising, full curve]"
CCc1cc2cc(C(=O)Nc3ccccc3F)sc2s1,AC50,[1],"0.000794 µM [falling, full curve]"
CCOc1ccc(-n2c(=O)c3c(C)c(C(=O)N(C)C)sc3n(Cc3cc(C)ccc3C)c2=O)cc1,AC50,[1],"3.98 µM [rising, partial curve]"
O=S(=O)(N1CCCCC1)n1c(Cc2ccccc2)nc2ccccc21,AC50,[1],"20 µM [falling, partial curve]"
CN(C(=O)CSc1nc2ccccc2n1Cc1ccccc1C#N)c1ccccc1,AC50,[1],"39.8 µM [falling, single point]"
CCOc1ccc(-c2nc3cc(NC(=O)COc4cccc(C)c4)ccc3o2)cc1,AC50,[1],"10 µM [rising, partial curve]"
O=C(CSc1ncn[nH]1)OCN1C(=O)c2ccccc2C1=O,AC50,[1],"25.1 µM [rising, partial curve, poor fit] [measured here: IkB-luc green channel]"
O=c1c2sc3ccccc3c2n(Cc2ccc(F)cc2Cl)c(=O)n1Cc1ccccc1,AC50,[1],"39.8 µM [falling, single point]"
Cc1ccc(NC(c2nnc(-c3ccccc3)o2)c2ccccc2F)c(Cl)c1 (centres undefined),AC50,[1],"0.0126 µM [falling, full curve, poor fit]"
COC(=O)c1ccc2nc(C)cc(Nc3cccc(Cl)c3C)c2c1,AC50,[1],"25.1 µM [falling, single point]"
Cc1ccc2oc(-c3ccc(C)c(NC(=O)c4ccc(-c5ccccc5[N+](=O)[O-])o4)c3)nc2c1,AC50,[1],"5.01 µM [falling, partial curve]"
CCC(C(=O)NC1CCCCC1)n1c(SCc2cccc(F)c2)nc2ccncc21 (centres undefined),AC50,[1],"12.6 µM [falling, partial curve]"
Cc1ccc(S(=O)(=O)C(CNS(=O)(=O)c2ccc(F)c(C(F)(F)F)c2)c2ccco2)cc1 (centres undefined),AC50,[1],"25.1 µM [falling, single point]"
CC(CNC(=O)C1CCN(C(=O)c2cc3sccc3n2C)CC1)c1ccccc1 (centres undefined),AC50,[1],"31.6 µM [falling, single point]"
Cc1ccc(Cl)cc1Nc1nn2c(=O)c3ccc(C(=O)NC(C)c4ccccc4)cc3nc2s1 (centres undefined),AC50,[1],"5.01 µM [falling, partial curve]"
COc1ccccc1CNC(=O)CCc1c(C)nn(-c2ccc(N3CCCCC3)nn2)c1C,AC50,[1],"15.8 µM [falling, partial curve]"
Cn1nc(C(=O)NCc2ccccc2)c2c1-c1ccccc1S(=O)(=O)C2,AC50,[1],"20 µM [falling, partial curve]"
COc1ccc(-c2nc3cc(C(C)C)ccc3o2)cc1NC(=O)c1ccccc1[N+](=O)[O-],AC50,[1],"0.398 µM [falling, full curve]"
CCOc1ccccc1CNC(=O)CCn1c(=O)c2cccn2c2ccc(F)cc21,AC50,[1],"31.6 µM [falling, single point]"
COc1ccc2c(c1)c(=O)c(C(=O)c1ccc(C)c(C)c1)cn2CC(=O)Nc1ccc2c(c1)OCCO2,AC50,[1],"10 µM [falling, partial curve]"
Cc1ccc(Cn2c(CN3CCC(C(=O)NCc4ccccc4C)CC3)cc3ccccc32)cc1,AC50,[1],"7.94 µM [falling, full curve]"
C=CCOC(=O)c1[nH]c2c(c1C)C(=O)CC(c1cc(OC)c(OC)c(OC)c1)C2 (centres undefined),AC50,[1],"3.98 µM [falling, full curve, poor fit]"
COc1ccc(NC(=O)C2COc3ccccc3C2)cc1Cl (centres undefined),AC50,[1],"1 µM [rising, full curve]"
Cc1ccc(NC(=O)CCOc2ccccc2)cc1,AC50,[1],"0.126 µM [rising, full curve]"
COC(=O)c1ccc(NC(=O)CCS(=O)(=O)c2ccc(Br)s2)cc1,AC50,[1],"15.8 µM [falling, partial curve, poor fit]"
CCc1ccc(NC(=O)CSc2nc3ccccc3nc2Cc2ccc(C)cc2)cc1,AC50,[1],"0.126 µM [falling, full curve, poor fit]"
Cc1nnc(N2C(=O)c3oc4ccccc4c(=O)c3C2c2ccc(C(C)(C)C)cc2)s1 (centres undefined),AC50,[1],"0.794 µM [rising, full curve]"

# No new results follow: entries from further up.
structure (smiles),measurement,setting,value
CCOc1ccc(-c2nc3cc(NC(=O)COc4cccc(C)c4)ccc3o2)cc1,AC50,[1],"10 µM [rising, partial curve]"
O=C(CSc1ncn[nH]1)OCN1C(=O)c2ccccc2C1=O,AC50,[1],"25.1 µM [rising, partial curve, poor fit] [measured here: IkB-luc green channel]"
O=c1c2sc3ccccc3c2n(Cc2ccc(F)cc2Cl)c(=O)n1Cc1ccccc1,AC50,[1],"39.8 µM [falling, single point]"
